# Laboratory results reported in the supplement of paper PMC8551327.
# This is one part of the list. Cut-off read from the data, not from the text of the source: active = 1.25 or more and inactive = the rest. Many values rest on one well or one pass, so single values are uncertain.
# Test system: Kcc2-LUC knock-in mouse primary cortical neurons (Kcc2 promoter reporter)
# Test: Kcc2 promoter-driven luciferase activity relative to vehicle control (fold of vehicle (ratio)); higher = stronger Kcc2 promoter activation (Kcc2 expression enhancer)
# Conditions: 100 nM; 48 h
row,SMILES,Kcc2 promoter-driven luciferase activity
1,c1csc(C[N+]23CN4CN(CN(C4)C2)C3)c1 [1-(2-Thenyl)hexamethylenetetrammonium chloride],active: 1.34
2,C/C=C(\C)C(=O)O[C@H]1C[C@@H](OC(C)=O)[C@@]2(C(=O)OC)CO[C@H]3[C@@H](O)[C@@](C)([C@]45O[C@@]4(C)[C@H]4C[C@@H]5O[C@@H]5OC=C[C@@]54O)[C@H]4[C@]1(CO[C@]4(O)C(=O)OC)[C@@H]32 [Azadirachtin],inactive: 0.74
3,CN1C(=O)[C@]23CC4=CC=C[C@H](O)[C@H]4N2C(=O)[C@@]1(CO)SS3 [Gliotoxin],inactive: 0.64
4,C/C1=C\[C@H](C)C[C@H](C)OC(=O)CC(c2ccc(O)cc2)NC(=O)[C@@H](Cc2c(Br)[nH]c3ccccc23)N(C)C(=O)[C@H](C)NC(=O)[C@@H](C)C1 (some centres undefined) [Jasplakinolide],inactive: 0.8
5,COC1CC(OC2CCC3(C=O)C4CCC5(C)C(C6=CC(=O)OC6)CCC5(O)C4CCC3(O)C2)OC(C)C1OC1OC(COC2OC(CO)C(O)C(O)C2O)C(O)C(O)C1O (centres undefined) [K-Strophanthoside],inactive: 1.11
6,COc1ccc2c(c1O)[C@]13CCN(C)[C@H](C2)[C@@H]1CCC(=O)C3 [Dihydrothebainone],inactive: 0.47
7,CC(=O)O[C@@H]1[C@@H](O)C2=C3[C@]4(C)[C@@H]1C(C)(C)C(=O)C[C@@H]4[C@]3(O)[C@H](OC(C)=O)[C@@]1(C[C@@H]1C)C2=O [Photobarbatusin I],inactive: 0.963
8,CCOC(OC1=C(C#N)CCC1)C(C)[Se]c1ccccc1 (centres undefined),inactive: 1.04
9,CC1=C2C(=CC(C)(C)[C@@H]2O)C(=O)[C@](C)(O)C12CC2 [Illudin M],inactive: 0.92
10,CC1=C(N2CC2)C(=O)c2nc3n(c2C1=O)CCC3OC(=O)CCl (centres undefined),inactive: 1.12
11,O=C1N[C@H]2[C@H](O)[C@H](O)[C@@H](O)[C@H](O)[C@@H]2c2cc3c(c(O)c21)OCO3 [Pancratistatin],inactive: 0.96
12,O=C1NC(=S)NC(=O)C1C(=O)Nc1ccccc1 [Merbarone],inactive: 0.53
13,"COc1ccc(-c2cc(=O)c3c(OC)c(OC)c(OC)cc3o2)cc1 [4',5,6,7-Tetramethoxyflavone]",inactive: 0.9
14,COC1CC(OC2CCC3(C=O)C4CCC5(C)C(C6=CC(=O)OC6)CCC5(O)C4CCC3(O)C2)OC(C)C1OC1OC(CO)C(O)C(O)C1O (centres undefined) [Strophanthin K],inactive: 1.18
15,COc1cc2c3cc1Oc1c(OC)c(OC)cc4c1C(Cc1ccc(cc1)Oc1cc(ccc1O)CC3N(C)CC2)N(C)CC4 (centres undefined) [Oxycanthine],inactive: 0.81
16,O=[Se](O)O.[Na+] [Selendale],inactive: 0.81
17,NCCCNCCSP(=O)(O)O [Amifostine],inactive: 1.19
18,COC(=O)C1=C(C(=O)OC)SC2(S1)C(C(=O)OC)=C(C(=O)OC)Sc1c2ssc1=O,inactive: 0.83
19,CC1=C(N2CC2)C(=O)C(CO)=C(N2CC2)C1=O,inactive: 0.76
20,COc1cc([C@@H]2c3cc4c(cc3[C@H](O)[C@H]3COC(=O)[C@H]23)OCO4)cc(OC)c1OC [Podofilox],inactive: 0.36
21,S=C=NCc1ccccc1 [Benzyl Isothiocyanate],active: 1.42
22,C1CN1c1nc(N2CC2)nc(N2CC2)n1 [Triethylenemelamine],inactive: 0.79
23,CC1=CC23C(COC(=O)C24CO4)C(C(=O)O)=CC3C1C (centres undefined) [Pentalenolactone],inactive: 0.45
24,N#C[C@H](O[C@@H]1O[C@H](CO[C@@H]2O[C@H](CO)[C@@H](O)[C@H](O)[C@H]2O)[C@@H](O)[C@H](O)[C@H]1O)c1ccccc1 [Amygdalin],inactive: 1.23
25,NP(=O)(Oc1c2occc2cc2ccc(=O)oc12)N(CCCl)CCCl (centres undefined),inactive: 1
26,CC[C@@]1(O)C[C@H](OC2CC(N(C)C)C(O)C(C)O2)c2c(O)c3c(c(O)c2[C@H]1OC1CC(N(C)C)C(O)C(C)O1)C(=O)c1cccc(O)c1C3=O (some centres undefined),inactive: 1.12
27,Cn1c(=O)[nH]c2nncnc2c1=O [Reumycin],inactive: 0.82
28,CC[C@H](C)c1occ2c(O)c(C(=O)O)c(=O)cc-2c1C [Ascochitine],inactive: 1.16
29,C[C@H]1CCC/C=C/[C@@H]2C[C@H](O)C[C@H]2[C@H](O)/C=C/C(=O)O1 [Brefeldin A; Ascotoxin],inactive: 0.6

# Some of these compounds in order of length of the SMILES, low to high:
row,SMILES,Kcc2 promoter-driven luciferase activity
9,CC1=C2C(=CC(C)(C)[C@@H]2O)C(=O)[C@](C)(O)C12CC2 [Illudin M],inactive: 0.92
29,C[C@H]1CCC/C=C/[C@@H]2C[C@H](O)C[C@H]2[C@H](O)/C=C/C(=O)O1 [Brefeldin A; Ascotoxin],inactive: 0.6
26,CC[C@@]1(O)C[C@H](OC2CC(N(C)C)C(O)C(C)O2)c2c(O)c3c(c(O)c2[C@H]1OC1CC(N(C)C)C(O)C(C)O1)C(=O)c1cccc(O)c1C3=O (some centres undefined),inactive: 1.12
